Reference: PMC7862700
This is a selection; strong and weak results do not stand in their true shares. For part of these data: At the low end of the ranking, values are background and their order means little. The list shows a part of the results. For part of these data: The source does not settle which construct or isoform was used.

Columns and labels:
Test in all cases: DAPPL (digital affinity profiling via proximity ligation, sequencing)
Details in all cases: 10 mM Tris-HCl pH 7.5, 50 mM NaCl, 1 mM DTT, 4% glycerol, room temperature, 30 min; GST-TFs on glutathione beads, 16-mer random dsDNA library, 0.1% …; high values mean tight binding; double strand, one strand shown; scale: fold enrichment (6-mer frequency, TF over GST control)
GABPA = biological target: T1, GABPA (UniProt Q06546)
T1 sequence: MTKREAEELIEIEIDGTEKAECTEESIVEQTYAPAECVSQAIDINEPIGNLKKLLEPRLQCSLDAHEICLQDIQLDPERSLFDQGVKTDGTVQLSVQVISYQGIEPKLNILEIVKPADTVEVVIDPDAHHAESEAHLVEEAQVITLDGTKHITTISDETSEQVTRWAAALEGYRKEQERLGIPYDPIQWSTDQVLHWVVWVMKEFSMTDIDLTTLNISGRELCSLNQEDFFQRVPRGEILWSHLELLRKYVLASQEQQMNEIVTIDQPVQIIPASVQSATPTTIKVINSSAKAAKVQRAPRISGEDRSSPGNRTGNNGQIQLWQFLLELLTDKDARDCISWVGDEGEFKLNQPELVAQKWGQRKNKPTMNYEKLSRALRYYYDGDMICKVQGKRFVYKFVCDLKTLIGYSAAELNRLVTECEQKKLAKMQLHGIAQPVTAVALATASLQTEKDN

ETS1 = biological target: T2, ETS1 (UniProt P14921)
T2 sequence: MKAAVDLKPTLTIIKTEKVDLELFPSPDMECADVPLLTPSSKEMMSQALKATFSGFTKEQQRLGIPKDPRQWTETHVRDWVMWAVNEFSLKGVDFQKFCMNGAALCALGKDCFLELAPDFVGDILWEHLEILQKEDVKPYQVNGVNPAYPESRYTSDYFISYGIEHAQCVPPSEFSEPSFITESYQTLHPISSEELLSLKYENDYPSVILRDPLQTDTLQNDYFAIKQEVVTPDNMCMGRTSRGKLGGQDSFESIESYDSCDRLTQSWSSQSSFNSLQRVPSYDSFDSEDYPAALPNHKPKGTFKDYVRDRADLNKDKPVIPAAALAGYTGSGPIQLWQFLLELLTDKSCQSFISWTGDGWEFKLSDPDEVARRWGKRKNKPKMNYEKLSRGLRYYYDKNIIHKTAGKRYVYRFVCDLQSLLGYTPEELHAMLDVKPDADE

SPDEF = biological target: T3, SPDEF (UniProt O95238)
T3 sequence: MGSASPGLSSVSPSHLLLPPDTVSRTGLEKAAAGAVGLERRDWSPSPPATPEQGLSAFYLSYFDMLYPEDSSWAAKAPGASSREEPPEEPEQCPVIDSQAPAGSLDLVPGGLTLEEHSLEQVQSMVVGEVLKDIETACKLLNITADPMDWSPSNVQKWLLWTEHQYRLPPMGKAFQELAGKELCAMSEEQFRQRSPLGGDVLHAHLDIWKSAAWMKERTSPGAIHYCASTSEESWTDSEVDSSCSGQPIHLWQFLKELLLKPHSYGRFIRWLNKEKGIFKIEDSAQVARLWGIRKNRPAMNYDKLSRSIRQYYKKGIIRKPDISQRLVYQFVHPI

| Sequence | binding signal (GABPA) | binding signal (ETS1) | binding signal (SPDEF) |
| --- | --- | --- | --- |
| GCAGAT | 0.929 | 0.991 | 0.896 |
| GCCACC | 0.927 | 0.917 | 0.89 |
| TACGGG | 0.891 | 1.01 | 0.899 |
| TGGAAG | 0.997 | 0.971 | 0.913 |
| GAGAAA | 0.789 | 0.73 | 0.684 |
| GAAAGC | 0.91 | 0.845 | 0.893 |
| TTAGGA | 0.901 | 0.952 | 0.949 |
| GCGTTG | 0.888 | 0.932 | 0.909 |
| GGCACC | 0.77 | 0.76 | 0.828 |
| GTCCTC | 1.17 | 1.26 | 1.19 |
| GTTCAG | 0.898 | 0.85 | 0.944 |
| CCCACT | 1.26 | 1.4 | 1.27 |
| ACAAGA | 0.986 | 0.948 | 0.984 |
| TCAGTA | 0.977 | 0.861 | 0.932 |
| AGGTTC | 0.87 | 0.827 | 0.906 |
| GAACTG | 0.984 | 0.993 | 0.986 |
| GTTCGT | 0.997 | 0.97 | 0.873 |
| AGAGAT | 0.933 | 0.892 | 0.885 |
| CAAGTA | 1.19 | 1.09 | 1.08 |
| AACCGA | 0.995 | 1.04 | 0.933 |
| TAGGCC | 1.02 | 0.848 | 0.861 |
| AGTCTT | 0.907 | 1.01 | 0.866 |
| CCGCGG | 0.848 | 0.917 | 0.791 |
| GTGCCG | 0.877 | 0.851 | 0.89 |

| Sequence | binding signal (GABPA) | binding signal (ETS1) | binding signal (SPDEF) |
| --- | --- | --- | --- |
| GAAAGT | 0.896 | 0.828 | 0.82 |
| CCATAG | 0.964 | 0.867 | 0.89 |
| GCTAAC | 0.983 | 1.05 | 0.982 |
| GCGTCA | 0.967 | 0.894 | 0.905 |
| CGGCAA | 0.938 | 0.965 | 0.947 |
| GGATAA | 0.746 | 0.823 | 0.828 |
| CGATGT | 1.08 | 0.994 | 1.12 |
| AGTTAT | 0.894 | 0.889 | 0.854 |
| CTAAGG | 0.971 | 1.01 | 0.972 |
| AAGGCC | 0.92 | 0.923 | 0.952 |
| TGCATT | 1.37 | 1.4 | 1.41 |
| TAAACC | 1.22 | 1.27 | 1.28 |
| TAGTCA | 0.93 | 0.84 | 0.785 |
| GTGGAA | 0.977 | 0.901 | 0.886 |
| ACGCCA | 0.872 | 0.931 | 0.85 |
| GTGCGC | 0.901 | 1.05 | 0.871 |
| CAGAAC | 0.931 | 0.908 | 0.927 |
| AGATAT | 0.911 | 0.923 | 0.976 |
| CCAGAA | 0.957 | 0.954 | 0.956 |
| GTTGTC | 0.847 | 0.842 | 0.932 |
| GTCACG | 0.999 | 1.08 | 1.02 |
| ACGCGA | 0.911 | 0.888 | 0.898 |
| AGGGTT | 0.964 | 0.888 | 0.899 |
| GACCGC | 1.06 | 0.909 | 0.898 |

| Sequence | binding signal (GABPA) | binding signal (ETS1) | binding signal (SPDEF) |
| --- | --- | --- | --- |
| GCGCCG | 1.03 | 1.02 | 0.931 |
| TAACCG | 0.98 | 1.03 | 1.1 |
| TAGTTG | 0.905 | 1.03 | 0.948 |
| TCGAAA | 0.941 | 1.02 | 0.977 |
| TGAACG | 0.887 | 0.904 | 0.946 |
| GTGGTC | 0.803 | 0.825 | 0.774 |
| CATGGC | 0.96 | 1.05 | 0.803 |
| CGAGAA | 0.956 | 0.872 | 0.83 |
| TGTAGA | 0.897 | 0.955 | 0.946 |
| TAGGGC | 1.01 | 0.973 | 1.01 |
| CACGTT | 1.3 | 1.31 | 1.18 |
| AGTTTA | 0.968 | 1.01 | 0.898 |
| AAAGTC | 0.946 | 0.989 | 0.992 |
| GGAATG | 0.85 | 0.839 | 0.835 |
| AGCCCA | 0.931 | 1.04 | 0.855 |
| GTTAGC | 0.929 | 0.962 | 0.989 |
| GTATGA | 0.935 | 0.953 | 0.96 |
| GTGCCT | 0.981 | 1.02 | 1.02 |
| TAAGGG | 0.98 | 0.982 | 0.976 |
| GCAGCC | 0.982 | 1.02 | 0.966 |
| GCCGCT | 0.985 | 1.02 | 0.993 |
| CGAGAT | 0.933 | 0.859 | 0.938 |
| CGCGCA | 0.95 | 0.996 | 0.948 |
| CCCCTA | 0.965 | 1.04 | 1.07 |

| Sequence | binding signal (GABPA) | binding signal (ETS1) | binding signal (SPDEF) |
| --- | --- | --- | --- |
| GCTAGG | 0.933 | 1.04 | 0.921 |
| AGTTTT | 0.949 | 0.991 | 0.87 |
| TCTAGA | 1.02 | 0.992 | 0.959 |
| GCGATT | 0.922 | 0.989 | 0.838 |
| AGACTT | 1.03 | 1.07 | 0.928 |
| CTGTGG | 0.901 | 0.882 | 0.898 |
| GGCCTG | 0.906 | 1.02 | 0.855 |
| CTCGAG | 1.35 | 1.42 | 1.16 |
| GTTTAG | 0.857 | 0.827 | 0.862 |
| GGCATA | 0.882 | 0.924 | 0.918 |
| TGGGAT | 1.3 | 1.24 | 1.17 |
| AACAGA | 0.972 | 0.916 | 0.953 |
| CCCGCG | 0.946 | 0.878 | 0.83 |
| AGTGTA | 0.911 | 0.941 | 0.982 |
| GCGGCA | 0.911 | 0.86 | 0.806 |
| TCGCGT | 0.976 | 0.942 | 0.891 |
| TGGTGA | 0.896 | 0.963 | 0.986 |
| GTACCT | 1.26 | 1.15 | 1.27 |
| GGAATA | 0.922 | 0.818 | 0.94 |
| CGGAAG | 2.61 | 2.66 | 3.02 |
| ACGAAG | 0.952 | 0.923 | 0.851 |
| CTTCCA | 1.34 | 1.44 | 1.45 |
| CCCCAG | 0.981 | 1 | 0.897 |
| AGAACC | 0.885 | 0.939 | 0.966 |

Reformatted as tab-separated lines: part of the list above
Sequence	binding signal (GABPA)	binding signal (ETS1)	binding signal (SPDEF)
GGAATA	0.922	0.818	0.94
CGGAAG	2.61	2.66	3.02
ACGAAG	0.952	0.923	0.851
CTTCCA	1.34	1.44	1.45
CCCCAG	0.981	1	0.897

The list goes on.

| Sequence | binding signal (GABPA) | binding signal (ETS1) | binding signal (SPDEF) |
| --- | --- | --- | --- |
| CGCACT | 1.28 | 1.24 | 1.1 |
| AGGAAT | 0.749 | 0.76 | 0.768 |
| CGACGG | 1.09 | 0.907 | 0.907 |
| GAAAGG | 0.969 | 0.927 | 0.977 |
| CAAAGT | 0.943 | 0.958 | 0.915 |
| GTGTTG | 0.865 | 0.879 | 1.01 |
| GCAATG | 0.956 | 1.04 | 0.969 |
| TAACAG | 0.967 | 1.05 | 1.11 |
| GTGGTT | 0.893 | 0.862 | 0.836 |
| GGTATG | 0.873 | 1 | 1.02 |
| GCTCGA | 1.15 | 1.26 | 0.978 |
| GCCATC | 0.945 | 0.894 | 0.961 |
| CGCCAT | 0.975 | 1.06 | 0.985 |
| CGAGTA | 0.891 | 0.907 | 0.837 |
| AGGTCC | 0.995 | 1 | 1.24 |
| GAGCTC | 0.885 | 1.03 | 0.909 |
| GTATGT | 0.967 | 1.09 | 0.947 |
| TACGAG | 0.943 | 0.906 | 0.896 |
| AGTTTG | 0.99 | 0.9 | 0.871 |
| CTATAG | 1.11 | 1.01 | 0.995 |
| AAGCCG | 0.974 | 0.879 | 0.891 |
| TTAGTC | 0.83 | 0.871 | 0.773 |
| CCACCG | 0.976 | 1.01 | 0.931 |
| ACCGTT | 1.02 | 0.955 | 1.01 |

Copied from the list:
TACGGG | binding signal (SPDEF): 0.899
TCTAGA | binding signal (ETS1): 0.992
